According to the supplement of paper PMC12819154, “High-throughput peptide-centric local stability assay extends protein–ligand identification to membrane proteins, tissues and bacteria” (Nature Structural & Molecular Biology, 2025):
Only a part is listed here, and it is no random draw. Most values lie at the level of the controls, where differences are scatter.

Protein sequences, listed by entry. Tags and fused reporters are not part of them. Lines headed by an entry give the natural chain unless they say otherwise; changes in a name come on top.
UniProt P36645: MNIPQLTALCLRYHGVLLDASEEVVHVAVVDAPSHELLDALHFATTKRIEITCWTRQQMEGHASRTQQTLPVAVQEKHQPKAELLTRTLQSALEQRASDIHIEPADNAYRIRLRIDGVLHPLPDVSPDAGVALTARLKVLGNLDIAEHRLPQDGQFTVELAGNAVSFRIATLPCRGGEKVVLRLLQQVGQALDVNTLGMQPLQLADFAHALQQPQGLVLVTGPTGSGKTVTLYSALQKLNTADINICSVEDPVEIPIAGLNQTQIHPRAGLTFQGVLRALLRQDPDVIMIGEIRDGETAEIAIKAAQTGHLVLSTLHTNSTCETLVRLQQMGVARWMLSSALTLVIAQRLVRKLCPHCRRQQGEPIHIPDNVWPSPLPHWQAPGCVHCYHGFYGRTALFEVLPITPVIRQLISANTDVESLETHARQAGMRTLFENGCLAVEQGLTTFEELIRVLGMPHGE
UniProt P31474: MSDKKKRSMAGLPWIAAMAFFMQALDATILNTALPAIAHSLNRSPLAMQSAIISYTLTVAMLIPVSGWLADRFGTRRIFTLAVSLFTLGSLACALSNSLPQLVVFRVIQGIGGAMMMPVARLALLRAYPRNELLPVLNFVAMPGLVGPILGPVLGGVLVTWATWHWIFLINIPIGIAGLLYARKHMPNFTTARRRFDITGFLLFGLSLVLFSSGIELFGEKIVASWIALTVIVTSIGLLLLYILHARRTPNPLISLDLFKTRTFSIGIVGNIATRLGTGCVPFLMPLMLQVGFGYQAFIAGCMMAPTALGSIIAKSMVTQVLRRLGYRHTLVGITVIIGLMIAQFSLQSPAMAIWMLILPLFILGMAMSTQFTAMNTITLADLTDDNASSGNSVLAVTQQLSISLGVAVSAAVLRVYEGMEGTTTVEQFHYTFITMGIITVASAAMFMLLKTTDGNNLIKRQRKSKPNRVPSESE
UniProt P37661: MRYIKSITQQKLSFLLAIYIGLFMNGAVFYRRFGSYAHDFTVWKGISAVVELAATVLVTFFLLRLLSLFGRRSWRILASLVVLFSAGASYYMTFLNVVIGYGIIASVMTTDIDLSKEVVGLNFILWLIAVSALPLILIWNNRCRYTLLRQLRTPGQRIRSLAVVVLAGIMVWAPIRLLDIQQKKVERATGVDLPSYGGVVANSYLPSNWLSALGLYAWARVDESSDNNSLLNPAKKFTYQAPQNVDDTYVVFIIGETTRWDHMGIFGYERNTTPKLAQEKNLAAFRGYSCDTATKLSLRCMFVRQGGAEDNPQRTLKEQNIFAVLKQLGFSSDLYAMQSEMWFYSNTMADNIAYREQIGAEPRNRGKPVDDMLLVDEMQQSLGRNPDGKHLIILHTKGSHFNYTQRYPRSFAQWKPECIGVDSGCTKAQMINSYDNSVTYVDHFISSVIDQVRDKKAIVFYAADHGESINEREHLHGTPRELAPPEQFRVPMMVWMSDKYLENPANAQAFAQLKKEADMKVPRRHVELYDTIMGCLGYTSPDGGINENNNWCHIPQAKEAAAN
UniProt P32674: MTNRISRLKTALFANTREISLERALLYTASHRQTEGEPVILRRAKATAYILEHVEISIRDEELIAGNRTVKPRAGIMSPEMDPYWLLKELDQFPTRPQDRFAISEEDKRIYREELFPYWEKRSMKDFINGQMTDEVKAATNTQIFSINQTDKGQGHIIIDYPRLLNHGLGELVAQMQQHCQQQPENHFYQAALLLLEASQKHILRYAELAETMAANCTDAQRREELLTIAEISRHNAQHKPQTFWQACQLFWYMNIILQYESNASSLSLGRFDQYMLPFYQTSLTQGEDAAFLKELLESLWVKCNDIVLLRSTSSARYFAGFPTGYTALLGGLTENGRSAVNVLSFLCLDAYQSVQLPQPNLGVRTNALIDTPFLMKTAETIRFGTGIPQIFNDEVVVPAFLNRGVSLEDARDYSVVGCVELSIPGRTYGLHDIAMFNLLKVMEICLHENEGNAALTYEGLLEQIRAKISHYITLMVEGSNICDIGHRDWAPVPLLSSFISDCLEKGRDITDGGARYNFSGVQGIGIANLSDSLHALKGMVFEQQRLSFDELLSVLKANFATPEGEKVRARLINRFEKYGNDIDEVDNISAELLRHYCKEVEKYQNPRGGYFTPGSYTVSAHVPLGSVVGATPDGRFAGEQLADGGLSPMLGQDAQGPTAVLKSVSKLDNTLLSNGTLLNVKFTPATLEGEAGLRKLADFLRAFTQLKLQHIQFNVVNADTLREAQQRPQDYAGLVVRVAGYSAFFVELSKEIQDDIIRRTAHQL
UniProt P32153: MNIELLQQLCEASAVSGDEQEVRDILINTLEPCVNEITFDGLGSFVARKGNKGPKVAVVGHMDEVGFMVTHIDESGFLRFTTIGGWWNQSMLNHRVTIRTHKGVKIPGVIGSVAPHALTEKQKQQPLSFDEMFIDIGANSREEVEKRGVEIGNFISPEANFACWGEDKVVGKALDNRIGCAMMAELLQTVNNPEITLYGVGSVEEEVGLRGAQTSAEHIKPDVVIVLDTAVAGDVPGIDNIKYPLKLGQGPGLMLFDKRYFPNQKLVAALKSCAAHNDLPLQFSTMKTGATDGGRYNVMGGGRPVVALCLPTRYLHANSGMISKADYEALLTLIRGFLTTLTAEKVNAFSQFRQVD
UniProt P37767: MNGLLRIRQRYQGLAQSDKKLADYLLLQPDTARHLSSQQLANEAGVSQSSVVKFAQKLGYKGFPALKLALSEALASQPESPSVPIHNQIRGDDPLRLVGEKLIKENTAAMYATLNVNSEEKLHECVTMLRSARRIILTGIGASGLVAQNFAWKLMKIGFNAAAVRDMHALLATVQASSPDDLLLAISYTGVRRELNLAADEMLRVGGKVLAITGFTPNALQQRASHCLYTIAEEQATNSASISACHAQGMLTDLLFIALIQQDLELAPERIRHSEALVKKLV
UniProt P37329: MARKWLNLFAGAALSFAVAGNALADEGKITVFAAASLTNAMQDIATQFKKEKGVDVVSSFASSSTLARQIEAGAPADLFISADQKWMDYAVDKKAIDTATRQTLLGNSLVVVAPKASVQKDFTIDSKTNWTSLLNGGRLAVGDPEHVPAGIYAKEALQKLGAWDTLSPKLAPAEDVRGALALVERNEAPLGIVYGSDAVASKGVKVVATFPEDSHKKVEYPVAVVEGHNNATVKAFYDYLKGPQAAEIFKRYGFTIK
UniProt P30871: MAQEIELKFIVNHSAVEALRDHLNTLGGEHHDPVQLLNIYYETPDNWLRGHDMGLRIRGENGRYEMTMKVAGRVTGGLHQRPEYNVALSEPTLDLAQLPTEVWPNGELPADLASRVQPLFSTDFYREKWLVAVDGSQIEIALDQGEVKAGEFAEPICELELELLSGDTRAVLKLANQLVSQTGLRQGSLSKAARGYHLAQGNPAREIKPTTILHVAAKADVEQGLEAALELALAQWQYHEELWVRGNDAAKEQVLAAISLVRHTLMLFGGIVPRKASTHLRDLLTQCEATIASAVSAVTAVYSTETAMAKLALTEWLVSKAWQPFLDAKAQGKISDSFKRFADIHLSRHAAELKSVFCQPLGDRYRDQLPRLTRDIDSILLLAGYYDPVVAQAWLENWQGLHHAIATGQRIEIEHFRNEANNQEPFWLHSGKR
UniProt P33595: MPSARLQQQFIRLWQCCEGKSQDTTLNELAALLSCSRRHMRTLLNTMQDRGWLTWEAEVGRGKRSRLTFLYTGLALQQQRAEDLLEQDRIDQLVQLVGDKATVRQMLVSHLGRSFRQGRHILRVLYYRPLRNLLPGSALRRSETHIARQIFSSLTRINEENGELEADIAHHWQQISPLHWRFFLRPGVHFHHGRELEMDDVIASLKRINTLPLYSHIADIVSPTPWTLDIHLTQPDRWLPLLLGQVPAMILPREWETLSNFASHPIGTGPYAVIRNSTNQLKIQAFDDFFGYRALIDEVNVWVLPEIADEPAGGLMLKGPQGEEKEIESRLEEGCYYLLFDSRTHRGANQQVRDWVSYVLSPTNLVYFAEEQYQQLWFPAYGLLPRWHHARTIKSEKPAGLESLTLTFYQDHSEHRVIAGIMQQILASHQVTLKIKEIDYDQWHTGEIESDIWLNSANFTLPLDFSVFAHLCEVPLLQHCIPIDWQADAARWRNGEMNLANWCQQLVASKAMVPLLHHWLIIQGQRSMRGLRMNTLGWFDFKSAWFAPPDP
UniProt P33355: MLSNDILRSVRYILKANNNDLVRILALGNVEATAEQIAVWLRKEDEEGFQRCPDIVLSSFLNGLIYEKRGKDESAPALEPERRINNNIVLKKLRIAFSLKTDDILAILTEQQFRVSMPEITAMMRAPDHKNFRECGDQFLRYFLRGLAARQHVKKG
UniProt P31467: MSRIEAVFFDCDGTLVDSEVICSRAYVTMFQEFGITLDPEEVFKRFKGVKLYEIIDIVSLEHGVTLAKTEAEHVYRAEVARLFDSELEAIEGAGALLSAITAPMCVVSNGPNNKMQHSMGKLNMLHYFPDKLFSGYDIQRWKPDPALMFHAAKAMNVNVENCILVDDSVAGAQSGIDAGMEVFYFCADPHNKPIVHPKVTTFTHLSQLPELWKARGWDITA
UniProt P39297: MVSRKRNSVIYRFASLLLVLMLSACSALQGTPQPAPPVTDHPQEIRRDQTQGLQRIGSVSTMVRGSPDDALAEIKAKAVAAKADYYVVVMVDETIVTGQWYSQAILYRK
UniProt P38055: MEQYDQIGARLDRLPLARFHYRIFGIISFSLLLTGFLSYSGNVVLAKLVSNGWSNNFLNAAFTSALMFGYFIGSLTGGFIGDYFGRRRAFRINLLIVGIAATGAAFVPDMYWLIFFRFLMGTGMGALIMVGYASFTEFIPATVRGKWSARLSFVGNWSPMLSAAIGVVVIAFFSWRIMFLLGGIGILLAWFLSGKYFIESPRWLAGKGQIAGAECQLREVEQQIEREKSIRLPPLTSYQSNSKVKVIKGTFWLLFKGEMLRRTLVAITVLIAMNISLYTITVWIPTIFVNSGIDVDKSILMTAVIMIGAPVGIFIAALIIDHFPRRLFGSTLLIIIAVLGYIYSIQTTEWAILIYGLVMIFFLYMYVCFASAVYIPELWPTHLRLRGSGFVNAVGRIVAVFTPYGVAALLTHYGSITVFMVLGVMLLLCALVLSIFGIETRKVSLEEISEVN
UniProt P32677: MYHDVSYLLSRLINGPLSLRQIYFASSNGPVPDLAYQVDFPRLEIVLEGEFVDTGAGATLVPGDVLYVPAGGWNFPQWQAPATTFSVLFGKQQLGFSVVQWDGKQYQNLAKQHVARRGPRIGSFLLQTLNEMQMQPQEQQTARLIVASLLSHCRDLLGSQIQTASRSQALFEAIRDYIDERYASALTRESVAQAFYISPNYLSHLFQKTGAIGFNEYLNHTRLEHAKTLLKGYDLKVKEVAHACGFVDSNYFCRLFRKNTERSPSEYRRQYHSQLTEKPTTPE
UniProt P38105: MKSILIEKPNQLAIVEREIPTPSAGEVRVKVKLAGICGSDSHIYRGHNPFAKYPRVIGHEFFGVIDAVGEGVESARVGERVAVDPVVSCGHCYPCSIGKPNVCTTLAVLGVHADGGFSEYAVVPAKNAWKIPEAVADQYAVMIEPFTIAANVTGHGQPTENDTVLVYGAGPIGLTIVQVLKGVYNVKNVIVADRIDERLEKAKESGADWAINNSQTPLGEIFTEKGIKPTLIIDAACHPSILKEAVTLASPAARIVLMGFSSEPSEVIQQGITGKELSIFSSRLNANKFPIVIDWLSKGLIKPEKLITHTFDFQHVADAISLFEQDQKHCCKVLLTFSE
UniProt P37348: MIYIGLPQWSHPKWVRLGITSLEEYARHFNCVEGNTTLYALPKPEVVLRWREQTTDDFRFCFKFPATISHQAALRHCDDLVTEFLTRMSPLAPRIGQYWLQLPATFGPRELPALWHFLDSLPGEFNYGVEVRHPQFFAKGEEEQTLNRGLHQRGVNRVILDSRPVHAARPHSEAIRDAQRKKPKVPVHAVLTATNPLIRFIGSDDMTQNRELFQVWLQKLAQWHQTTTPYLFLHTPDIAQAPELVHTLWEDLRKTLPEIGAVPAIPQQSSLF
UniProt P37146: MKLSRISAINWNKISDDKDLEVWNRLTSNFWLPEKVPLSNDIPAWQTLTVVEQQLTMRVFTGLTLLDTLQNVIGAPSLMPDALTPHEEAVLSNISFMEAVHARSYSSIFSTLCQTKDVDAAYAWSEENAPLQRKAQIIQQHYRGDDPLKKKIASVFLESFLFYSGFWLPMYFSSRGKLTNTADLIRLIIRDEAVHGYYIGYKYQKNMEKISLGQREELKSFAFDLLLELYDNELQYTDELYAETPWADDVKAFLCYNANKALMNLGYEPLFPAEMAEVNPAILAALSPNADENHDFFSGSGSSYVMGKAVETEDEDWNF
UniProt P39298: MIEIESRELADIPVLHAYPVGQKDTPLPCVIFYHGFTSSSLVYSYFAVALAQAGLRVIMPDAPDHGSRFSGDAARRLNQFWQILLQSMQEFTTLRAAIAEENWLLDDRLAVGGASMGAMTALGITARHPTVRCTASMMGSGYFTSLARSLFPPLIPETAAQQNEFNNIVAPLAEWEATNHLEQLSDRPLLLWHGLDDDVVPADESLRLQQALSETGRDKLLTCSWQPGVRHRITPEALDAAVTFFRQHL

Compound: Nc1ncnc2c1ncn2[C@@H]1O[C@H](COP(=O)(O)OP(=O)(O)OP(=O)(O)O)[C@@H](O)[C@H]1O [adenosine 5'-triphosphate]
Assay: log2 fold change of tryptic peptide abundance, ligand vs vehicle (limited proteolysis) (log2 ratio); higher = more trypsin-susceptible (destabilized)
Settings: ligand concentration: 5 mM; sample: E. coli desalted lysate; replicate design: treated before aliquoting
Method: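 HT-PELSA: desalted E. coli K-12 BW25113 lysate (with 12 mM MgCl2) incubated with 5 mM ATP (pH 7) or water for 30 min at 25 C, then a 4 min trypsin pulse at 22 C. Peptides were quantified by DIA-MS (4 replicates). Value is the peptide log2 fold change (treated/control); negative = stabilized. Scale: negative = ligand-stabilized region.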
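Note: lysate desalted by size exclusion to strip endogenous ATP, peptide intensities built from DIA-NN precursor signals, and peptides missing any value discarded before comparison.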

Question: How did the log2 fold change turn out when “UniProt P36645 (peptide sequence: TQQTLPVAVQEK, peptide start residue: 66)” was run?
Answer: 0.145

Question: Which log2 fold change does the source give for “UniProt P31474 (peptide sequence: SKPNRVPSESE, peptide start residue: 465)” here?
Answer: 0.288

Question: For “UniProt P37661 (peptide sequence: EHLHGTPR, peptide start residue: 473)”, which log2 fold change is on record?
Answer: -0.526

Question: How did the log2 fold change turn out when “UniProt P32674 (peptide sequence: FAISEEDKR, peptide start residue: 101)” was run?
Answer: 0.714

Question: Which log2 fold change does the source give for “UniProt P32153 (peptide sequence: LGQGPGLMLFDKR, peptide start residue: 247)” here?
Answer: -1.12

Question: Which log2 fold change does the source give for “UniProt P32670 (peptide sequence: TSLEVEHLLAQFR, peptide start residue: 669)” here?
Answer: 0.356

Question: Which log2 fold change does the source give for “UniProt P33229 (peptide sequence: TTGNNNGGVHV, peptide start residue: 54)” here?
Answer: 0.158

Question: For “UniProt P31826 (peptide sequence: TNLVQHNK, peptide start residue: 232)”, which log2 fold change is on record?
Answer: -0.482

Question: “UniProt P37767 (peptide sequence: IRHSEALVK, peptide start residue: 271)” was tested. Which log2 fold change did it give?
Answer: 0.43

Question: “UniProt P37338 (peptide sequence: EALSQLVAER, peptide start residue: 45)” was tested. Which log2 fold change did it give?
Answer: 0.437

Question: With “UniProt P37329 (peptide sequence: LAPAEDVR, peptide start residue: 170)” as the target, how does the log2 fold change read?
Answer: 0.249

Question: For “UniProt P39332 (peptide sequence: HSLYAEHR, peptide start residue: 13)”, which log2 fold change is on record?
Answer: -0.467

Question: “UniProt P30871 (peptide sequence: IEIEHFR, peptide start residue: 411)” was tested. Which log2 fold change did it give?
Answer: 0.378

Question: Which log2 fold change does the source give for “UniProt P32718 (peptide sequence: ETLVAMTQK, peptide start residue: 257)” here?
Answer: -0.504

Question: How did the log2 fold change turn out when “UniProt P39172 (peptide sequence: GYFVFHDAYGYFEK, peptide start residue: 202)” was run?
Answer: 0.231

Question: How did the log2 fold change turn out when “UniProt P33595 (peptide sequence: TLLNTMQDR, peptide start residue: 42)” was run?
Answer: 0.396

Question: How did the log2 fold change turn out when “UniProt P33362 (peptide sequence: VQLGTTPVVR, peptide start residue: 59)” was run?
Answer: -0.284

Question: “UniProt P33355 (peptide sequence: INNNIVLK, peptide start residue: 84)” was tested. Which log2 fold change did it give?
Answer: 0.513

Question: With “UniProt P39279 (peptide sequence: FKDESGKEQFSGAVVK, peptide start residue: 202)” as the target, how does the log2 fold change read?
Answer: 0.293

Question: How did the log2 fold change turn out when “UniProt P37750 (peptide sequence: VFITDHNHGSFK, peptide start residue: 100)” was run?
Answer: -0.178

Question: Which log2 fold change does the source give for “UniProt P33228 (peptide sequence: EQLAAALPR, peptide start residue: 40)” here?
Answer: 0.25

Question: How did the log2 fold change turn out when “UniProt P31467 (peptide sequence: TEAEHVYR, peptide start residue: 69)” was run?
Answer: 0.595

Question: “UniProt P39297 (peptide sequence: IGSVSTMVR, peptide start residue: 56)” was tested. Which log2 fold change did it give?
Answer: -0.652

Question: “UniProt P38055 (peptide sequence: GQIAGAECQLR, peptide start residue: 208)” was tested. Which log2 fold change did it give?
Answer: 0.0158

Question: How did the log2 fold change turn out when “UniProt P39315 (peptide sequence: AQALAAQGITVR, peptide start residue: 38)” was run?
Answer: 0.389

Question: How did the log2 fold change turn out when “UniProt P32677 (peptide sequence: VKEVAHACGFVDSNYFCR, peptide start residue: 237)” was run?
Answer: 0.766

Question: For “UniProt P37049 (peptide sequence: NHLIGETLK, peptide start residue: 130)”, which log2 fold change is on record?
Answer: -0.32

Question: With “UniProt P37623 (peptide sequence: EQAPQGPR, peptide start residue: 23)” as the target, how does the log2 fold change read?
Answer: -0.176

Question: “UniProt P38105 (peptide sequence: ELSIFSSR, peptide start residue: 276)” was tested. Which log2 fold change did it give?
Answer: -0.418

Question: Which log2 fold change does the source give for “UniProt P37348 (peptide sequence: HPQFFAK, peptide start residue: 133)” here?
Answer: 0.277

Question: How did the log2 fold change turn out when “UniProt P37650 (peptide sequence: AIPELQQAVR, peptide start residue: 288)” was run?
Answer: 0.296

Question: For “UniProt P36667 (peptide sequence: HDDLLTYIK, peptide start residue: 96)”, which log2 fold change is on record?
Answer: 0.576

Question: Which log2 fold change does the source give for “UniProt P37146 (peptide sequence: ISDDKDLEVWNR, peptide start residue: 14)” here?
Answer: 0.265

Question: Which log2 fold change does the source give for “UniProt P36673 (peptide sequence: LYDQGHR, peptide start residue: 170)” here?
Answer: -0.457

Question: With “UniProt P32675 (peptide sequence: IMDATQAR, peptide start residue: 178)” as the target, how does the log2 fold change read?
Answer: -0.362

Question: Which log2 fold change does the source give for “UniProt P31069 (peptide sequence: TVLAVSDSK, peptide start residue: 341)” here?
Answer: -0.0677

Question: Which log2 fold change does the source give for “UniProt P36930 (peptide sequence: FQLASAPK, peptide start residue: 79)” here?
Answer: 0.0339

Question: Which log2 fold change does the source give for “UniProt P32680 (peptide sequence: LLAECEER, peptide start residue: 163)” here?
Answer: 0.206

Question: For “UniProt P39298 (peptide sequence: VIMPDAPDHGSR, peptide start residue: 57)”, which log2 fold change is on record?
Answer: -0.649

Question: For “UniProt P33590 (peptide sequence: TELQITLK, peptide start residue: 138)”, which log2 fold change is on record?
Answer: -0.556
